# Measurements as given in the supplement of paper PMC8728848.
# The list shows a part of the results.
# B1: MXA PilAct-eGFP (Myxococcus xanthus), Q59589 (protein)
# chain: MRVSRFNPRNRGFTLIELMIVVAIIGILAAIAIPNFIKFQARSKQSEAKTNLKALYTAQKSFFSEKDRYSDFANEIGFAPERGNRYGYRVSAAAGDCEVRNAADLPVPAAGVPCISNDSFRFGANSAIDDPTPVVARFVPQGAAGWNTTLGVQPTIADCPNCNFFAGARGNADNEATFDDWVIAGFEGSGQVGPCSEAGNVASGTPYNTRNDVACDGAAQ
# Key:
# Assay in all cases: glycan array binding signal (z-score within array); higher = stronger binding
# Settings in all cases: glycan notation: IUPAC condensed, linker removed
# Gal(b1-2)Gal = target: Gal(b1-2)Gal
# Method in brief: (§1)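 Glycan array binding is given as a within-array Z-score, which can be read as non-binding when negative. The arrays, 3228 of them, came from the Consortium for Functional Glycomics database and were retained only where the protein sequence was available. Z-scores were averaged across arrays of the same protein sequence at different concentrations or buffers and across linkers.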
# Gal(b1-3)Gal = target: Gal(b1-3)Gal
# Method in brief: as §1
# Gal(b1-3)Gal(b1-4)GlcNAc = target: Gal(b1-3)Gal(b1-4)GlcNAc
# Method in brief: as §1
# Gal(b1-3)GalNAc = target: Gal(b1-3)GalNAc
# Method in brief: as §1
# [1] = target: Gal(b1-3)GalNAc(a1-3)[Fuc(a1-2)]Gal(b1-4)Glc
# Method in brief: as §1
# [2] = target: Gal(b1-3)GalNAc(a1-3)[Fuc(a1-2)]Gal(b1-4)GlcNAc
# Method in brief: as §1
# Gal(b1-3)GalNAc(b1-3)Gal = target: Gal(b1-3)GalNAc(b1-3)Gal
# Method in brief: as §1
# [3] = target: Gal(b1-3)GalNAc(b1-3)Gal(a1-4)Gal(b1-4)Glc
# Method in brief: as §1
# [4] = target: Gal(b1-3)GalNAc(b1-4)Gal(b1-4)Glc
# Method in brief: as §1
# [5] = target: Gal(b1-3)GalNAc(b1-4)[Neu5Ac(a2-3)]Gal(b1-4)Glc
# Method in brief: as §1
# Gal(b1-3)GlcNAc = target: Gal(b1-3)GlcNAc
# Method in brief: as §1
# [6] = target: Gal(b1-3)GlcNAc(a1-3)Gal(b1-4)GlcNAc
# Method in brief: as §1
# [7] = target: Gal(b1-3)GlcNAc(a1-6)Gal(b1-4)GlcNAc
# Method in brief: as §1
# Gal(b1-3)GlcNAc(b1-2)Man = target: Gal(b1-3)GlcNAc(b1-2)Man
# Method in brief: as §1
# [8] = target: Gal(b1-3)GlcNAc(b1-2)Man(a1-3)[Gal(b1-3)GlcNAc(b1-2)Man(a1-6)]Man(b1-4)GlcNAc(b1-4)GlcNAc
# Method in brief: as §1
# [9] = target: Gal(b1-3)GlcNAc(b1-2)Man(a1-3)[Gal(b1-3)GlcNAc(b1-2)Man(a1-6)]Man(b1-4)GlcNAc(b1-4)[Fuc(a1-6)]GlcNAc
# Method in brief: as §1
# [10] = target: Gal(b1-3)GlcNAc(b1-2)Man(a1-3)[GlcNAc(b1-4)][Gal(b1-3)GlcNAc(b1-2)Man(a1-6)]Man(b1-4)GlcNAc(b1-4)GlcNAc
# Method in brief: as §1
# [11] = target: Gal(b1-3)GlcNAc(b1-2)[Gal(b1-3)GlcNAc(b1-6)]Man(a1-6)[Gal(b1-3)GlcNAc(b1-2)Man(a1-3)]Man(b1-4)GlcNAc(b1-4)GlcNAc
# Method in brief: as §1
# [12] = target: Gal(b1-3)GlcNAc(b1-3)Gal(b1-3)GlcNAc
# Method in brief: as §1
# [13] = target: Gal(b1-3)GlcNAc(b1-3)Gal(b1-4)Glc
# Method in brief: as §1
# [14] = target: Gal(b1-3)GlcNAc(b1-3)Gal(b1-4)GlcNAc
# Method in brief: as §1
# [15] = target: Gal(b1-3)GlcNAc(b1-3)Gal(b1-4)GlcNAc(b1-2)Man(a1-3)[Gal(b1-3)GlcNAc(b1-3)Gal(b1-4)GlcNAc(b1-2)Man(a1-6)]Man(b1-4)GlcNAc(b1-4)GlcNAc
# Method in brief: as §1
# [16] = target: Gal(b1-3)GlcNAc(b1-3)Gal(b1-4)GlcNAc(b1-2)[Gal(b1-3)GlcNAc(b1-3)Gal(b1-4)GlcNAc(b1-6)]Man(a1-6)[Gal(b1-3)GlcNAc(b1-3)Gal(b1-4)GlcNAc(b1-2)Man(a1-3)]Man(b1-4)GlcNAc(b1-4)[Fuc(a1-6)]GlcNAc
# Method in brief: as §1
# [17] = target: Gal(b1-3)GlcNAc(b1-3)Gal(b1-4)GlcNAc(b1-3)Gal(b1-4)GlcNAc(b1-2)[Gal(b1-3)GlcNAc(b1-3)Gal(b1-4)GlcNAc(b1-3)Gal(b1-4)GlcNAc(b1-6)]Man(a1-6)[Gal(b1-3)GlcNAc(b1-3)Gal(b1-4)GlcNAc(b1-3)Gal(b1-4)GlcNAc(b1-2)Man(a1-3)]Man(b1-4)GlcNAc(b1-4)[Fuc(a1-6)]GlcNAc
# Method in brief: as §1
# [18] = target: Gal(b1-3)GlcNAc(b1-3)Gal(b1-4)GlcNAc(b1-6)[Gal(b1-3)GlcNAc(b1-3)]Gal(b1-4)Glc
# Method in brief: as §1
# [19] = target: Gal(b1-3)GlcNAc(b1-3)Gal(b1-4)[Fuc(a1-3)]GlcNAc
# Method in brief: as §1
# [20] = target: Gal(b1-3)GlcNAc(b1-3)Gal(b1-4)[Fuc(a1-3)]GlcNAc(b1-6)[Gal(b1-3)GlcNAc(b1-3)]Gal(b1-4)Glc
# Method in brief: as §1
# [21] = target: Gal(b1-3)GlcNAc(b1-3)GalNAc
# Method in brief: as §1
# [22] = target: Gal(b1-3)GlcNAc(b1-6)Gal(b1-4)GlcNAc
# Method in brief: as §1
# [23] = target: Gal(b1-3)GlcNAc(b1-6)GalNAc
# Method in brief: as §1
# [24] = target: Gal(b1-3)GlcNAc(b1-6)[Gal(b1-3)]GalNAc
# Method in brief: as §1
# Gal(b1-3)GlcNAc6S = target: Gal(b1-3)GlcNAc6S
# Method in brief: as §1
# [25] = target: Gal(b1-3)[Fuc(a1-4)]GlcNAc
# Method in brief: as §1
# [26] = target: Gal(b1-3)[Fuc(a1-4)]GlcNAc(b1-2)Man
# Method in brief: as §1
# [27] = target: Gal(b1-3)[Fuc(a1-4)]GlcNAc(b1-2)Man(a1-3)[Gal(b1-3)[Fuc(a1-4)]GlcNAc(b1-2)Man(a1-6)]Man(b1-4)GlcNAc(b1-4)[Fuc(a1-6)]GlcNAc
# Method in brief: as §1
# [28] = target: Gal(b1-3)[Fuc(a1-4)]GlcNAc(b1-3)Gal(b1-3)[Fuc(a1-4)]GlcNAc
# Method in brief: as §1
# [29] = target: Gal(b1-3)[Fuc(a1-4)]GlcNAc(b1-3)Gal(b1-4)[Fuc(a1-3)]GlcNAc
# Method in brief: as §1
# [30] = target: Gal(b1-3)[Fuc(a1-4)]GlcNAc(b1-6)GalNAc
# Method in brief: as §1
# [31] = target: Gal(b1-3)[GlcNAc(b1-6)]GalNAc
# Method in brief: as §1
# [32] = target: Gal(b1-3)[Neu5Ac(a2-6)]GalNAc
# Method in brief: as §1
# [33] = target: Gal(b1-3)[Neu5Ac(a2-6)]GlcNAc(b1-4)Gal(b1-4)Glc
# Method in brief: as §1
# [34] = target: Gal(b1-3)[Neu5Ac(b2-6)]GalNAc
# Method in brief: as §1
# Gal(b1-4)Gal = target: Gal(b1-4)Gal
# Method in brief: as §1
# [35] = target: Gal(b1-4)GalNAc(a1-3)[Fuc(a1-2)]Gal(b1-4)GlcNAc
# Method in brief: as §1
# [36] = target: Gal(b1-4)GalNAc(b1-3)[Fuc(a1-2)]Gal(b1-4)GlcNAc
# Method in brief: as §1
binder,measurement,setting,value
B1,glycan array binding signal (z-score),Gal(b1-2)Gal,-0.533
same,glycan array binding signal (z-score),Gal(b1-3)Gal,-0.782
same,glycan array binding signal (z-score),Gal(b1-3)Gal(b1-4)GlcNAc,0.335
same,glycan array binding signal (z-score),Gal(b1-3)GalNAc,-0.582
same,glycan array binding signal (z-score),[1],-0.888
same,glycan array binding signal (z-score),[2],-1.12
same,glycan array binding signal (z-score),Gal(b1-3)GalNAc(b1-3)Gal,-0.318
same,glycan array binding signal (z-score),[3],-1.31
same,glycan array binding signal (z-score),[4],-0.52
same,glycan array binding signal (z-score),[5],-0.298
same,glycan array binding signal (z-score),Gal(b1-3)GlcNAc,0.97
same,glycan array binding signal (z-score),[6],-1.01
same,glycan array binding signal (z-score),[7],-1.44
same,glycan array binding signal (z-score),Gal(b1-3)GlcNAc(b1-2)Man,-0.797
same,glycan array binding signal (z-score),[8],1.79
same,glycan array binding signal (z-score),[9],0.709
same,glycan array binding signal (z-score),[10],0.003
same,glycan array binding signal (z-score),[11],-0.515
same,glycan array binding signal (z-score),[12],1.12
same,glycan array binding signal (z-score),[13],-0.12
same,glycan array binding signal (z-score),[14],0.458
same,glycan array binding signal (z-score),[15],1.88
same,glycan array binding signal (z-score),[16],6.11
same,glycan array binding signal (z-score),[17],4.94
same,glycan array binding signal (z-score),[18],0.239
same,glycan array binding signal (z-score),[19],-0.043
same,glycan array binding signal (z-score),[20],-0.452
same,glycan array binding signal (z-score),[21],-0.342
same,glycan array binding signal (z-score),[22],-0.705
same,glycan array binding signal (z-score),[23],0.366
same,glycan array binding signal (z-score),[24],1.55
same,glycan array binding signal (z-score),Gal(b1-3)GlcNAc6S,0.063
same,glycan array binding signal (z-score),[25],-0.56
same,glycan array binding signal (z-score),[26],0.913
same,glycan array binding signal (z-score),[27],-0.259
same,glycan array binding signal (z-score),[28],-2.03
same,glycan array binding signal (z-score),[29],0.781
same,glycan array binding signal (z-score),[30],-1.4
same,glycan array binding signal (z-score),[31],-0.78
same,glycan array binding signal (z-score),[32],-0.062
same,glycan array binding signal (z-score),[33],0.129
same,glycan array binding signal (z-score),[34],-1.02
same,glycan array binding signal (z-score),Gal(b1-4)Gal,-1.28
same,glycan array binding signal (z-score),[35],0.225
same,glycan array binding signal (z-score),[36],-0.793

# Fetched one by one from above (2):
binder,measurement,setting,value
B1,glycan array binding signal (z-score),[11],-0.515
same,glycan array binding signal (z-score),Gal(b1-3)GalNAc,-0.582
